From patent US20150060744A1, “[…] BLUE DYE COMPOUND, BLUE RESIN COMPOSITION FOR COLOR FILTER CONTAINING SAME AND COLOR FILTER USING SAME” (KYUNG SYNTHETIC CO., LTD., priority 2012, published 2015)
Some entries share one result that the patent states for a list of compounds.

Test: Solubility of blue dye compounds in PGMEA and cyclohexanone
Type: physicochemical
Details: for Solubility in organic solvent, comparison in words: PGMEA and cyclohexanone

SMILES	Solubility in organic solvent, comparison in words	Solubility in PGMEA (solvent PGMEA (propylene glycol monomethyl ether acetate), listed as Synthesis Example 1)	Solubility in cyclohexanone (solvent cyclohexanone, listed as Synthesis Example 1)
C=C(C)C(=O)OCCN(CC)c1ccc(C(=C2C=CC(=[N+](CC)CCOC(=O)C(=C)C)C=C2)c2ccc(Nc3ccccc3)c3ccccc23)cc1 [Comp. Ex. 1]	relatively lower solubility than the compounds of Synthesis Examples 1-6	–	–
C=C(C)C(=O)OCCN(CC)c1ccc(C(=C2C=CC(=[N+](CC)CCOC(=O)C(=C)C)C=C2)c2ccc(Nc3ccccc3)c3ccccc23)cc1 [Syn. Ex. 1]	–	greater than 10%	greater than 10%
CN(C)c1ccc(C(=C2C=CC(=[N+](C)C)C=C2)c2ccc(Nc3ccccc3)c3ccccc23)cc1 [compound 2]	relatively lower solubility than the compounds of Synthesis Examples 1-6	–	–
